PubChem BioAssay AID1259254 | NCATS, 2017

- Screen: 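Finding genes that stop cells copying their DNA twice in one cycle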 (primary screen)
- Cells: human HCT116 colorectal cancer cells
- Reagents: single siRNA against human genes
- Timing: 3 days
- Read-out: 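Nuclei stained with Hoechst and imaged; cell-cycle phase assigned by DNA content; G2 share scaled per plate, non-targeting siRNA 0%, GMNN siRNA 100%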
- Reading the numbers: G2 robust z-score: higher = more G2 cells, more excess DNA replication
- Rule for the call: 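Active siRNAs have a G2 robust z of 5 or more median absolute deviations over the median, which in these data means about 38% or higher of GMNN control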
The whole screen tested about 59,000 reagents; this is a part drawn at random. About 1,550 of them (2.6%) count as active. 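G2 share is only a proxy for re-replication; each gene was hit by three separate siRNAs, and active genes were retested.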 Further read-outs or replicates are left out here. Not stated in the record: the amount of reagent.

CCDC181 (GeneID 57821) [SID160746740]
- G2 robust z-score: 2.87
- activity call: inactive

CCDC181 (GeneID 57821) [SID160746742]
- G2 robust z-score: -0.191
- activity call: inactive

CCDC181 (GeneID 57821) [SID160746743]
- G2 robust z-score: 1.07
- activity call: inactive

THOC7 (GeneID 80145) [SID160750104]
- G2 robust z-score: 0.31
- activity call: inactive

THOC7 (GeneID 80145) [SID160750105]
- G2 robust z-score: -0.765
- activity call: inactive

THOC7 (GeneID 80145) [SID160750106]
- G2 robust z-score: -0.671
- activity call: inactive

SDE2 (GeneID 163859) [SID160760078]
- G2 robust z-score: -0.446
- activity call: inactive

SDE2 (GeneID 163859) [SID160760079]
- G2 robust z-score: 2.8
- activity call: inactive

SDE2 (GeneID 163859) [SID160760081]
- G2 robust z-score: -0.837
- activity call: inactive

NUMB (GeneID 8650) [SID160720512]
- G2 robust z-score: 1.68
- activity call: inactive

NUMB (GeneID 8650) [SID160720513]
- G2 robust z-score: -0.0568
- activity call: inactive

NUMB (GeneID 8650) [SID160720514]
- G2 robust z-score: 0.515
- activity call: inactive

RGMA (GeneID 56963) [SID160745408]
- G2 robust z-score: -0.861
- activity call: inactive

RGMA (GeneID 56963) [SID160745409]
- G2 robust z-score: -0.281
- activity call: inactive

RGMA (GeneID 56963) [SID160745412]
- G2 robust z-score: 1.69
- activity call: inactive

Continued; the last 3 above are carried over.
RGMA (GeneID 56963) [SID160745408]
- G2 robust z-score: -0.861
- activity call: inactive

RGMA (GeneID 56963) [SID160745409]
- G2 robust z-score: -0.281
- activity call: inactive

RGMA (GeneID 56963) [SID160745412]
- G2 robust z-score: 1.69
- activity call: inactive

MPZL3 (GeneID 196264) [SID160760579]
- G2 robust z-score: 1.41
- activity call: inactive

MPZL3 (GeneID 196264) [SID160760580]
- G2 robust z-score: 7.54
- activity call: active

MPZL3 (GeneID 196264) [SID160760581]
- G2 robust z-score: -0.101
- activity call: inactive

MAD2L1 (GeneID 4085) [SID160776845]
- G2 robust z-score: 5.09
- activity call: active

MAD2L1 (GeneID 4085) [SID160776846]
- G2 robust z-score: 4.35
- activity call: inactive

MAD2L1 (GeneID 4085) [SID160776847]
- G2 robust z-score: 1.9
- activity call: inactive

OR1N2 (GeneID 138882) [SID160757638]
- G2 robust z-score: -0.534
- activity call: inactive

OR1N2 (GeneID 138882) [SID160757639]
- G2 robust z-score: -0.463
- activity call: inactive

OR1N2 (GeneID 138882) [SID160757640]
- G2 robust z-score: -0.809
- activity call: inactive

RETREG2 (GeneID 79137) [SID160734925]
- G2 robust z-score: -0.0456
- activity call: inactive

RETREG2 (GeneID 79137) [SID160748673]
- G2 robust z-score: 0.823
- activity call: inactive

RETREG2 (GeneID 79137) [SID160748674]
- G2 robust z-score: -0.724
- activity call: inactive

EARS2 (GeneID 124454) [SID160756175]
- G2 robust z-score: 0.275
- activity call: inactive

EARS2 (GeneID 124454) [SID160756176]
- G2 robust z-score: 2.49
- activity call: inactive

EARS2 (GeneID 124454) [SID160756177]
- G2 robust z-score: 0.155
- activity call: inactive
